{"source": "the supplement of paper PMC5407854", "about": "“Inhibitor of ppGalNAc-T3-mediated O-glycosylation blocks cancer cell invasiveness and lowers FGF23 levels” (eLife, 2017)", "note": "The list shows a part of the results. Most entries show no effect beyond the scatter of the controls.", "data": [{"tested_on": "ppGalNAc-T3 sensor", "experiment": "T3 sensor activation Q score (MG/GFP ratio z-score vs DMSO controls) (SD units); higher = more sensor activation (inhibition of ppGalNAc-T3 glycosylation)", "conditions": "HEK293 sensor cells; 10 µM; 6 h", "procedure": "(§1)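 Cells were treated with compound at 10 uM for 6 h, then MG/GFP ratio was read by flow cytometry (10,000 cells per well, duplicate wells). Q = (R - R_neg)/SD_neg relative to DMSO vehicle controls; the signal rises when the glycosyltransferase is inhibited.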", "values": [{"compound": "Cc1ccc(-c2ncccc2O)cc1", "T3 sensor activation Q score": -0.875}, {"compound": "CN(Cc1ccc2c(c1)OCO2)C1CCCCC1", "T3 sensor activation Q score": 0.53}, {"compound": "Clc1ccccc1CN1CCc2ccccc2C1", "T3 sensor activation Q score": 0.115}, {"compound": "CS(=O)(=O)N(Cc1ccccc1)c1ccc(C(=O)O)cc1", "T3 sensor activation Q score": -0.585}, {"compound": "COc1ccc(/C=C(/NC(=O)c2ccco2)C(=O)Nc2ccc(Cl)cc2)cc1", "T3 sensor activation Q score": -1}, {"compound": "CC(NS(=O)(=O)c1ccc(Br)cc1)c1ccccc1", "note": "(stereo not given)", "T3 sensor activation Q score": 0.26}, {"compound": "CC(=O)Nc1ccc2c(c1)N(C(C)=O)c1ccccc1CC2", "T3 sensor activation Q score": 0.2}, {"compound": "COc1ccc(OC)c(C(=O)c2ccc(C(=O)O)cc2)c1", "T3 sensor activation Q score": -0.44}, {"compound": "Nc1cccc(C(=O)Nc2ccccc2Cl)c1", "T3 sensor activation Q score": -0.35}, {"compound": "O=C1C(=O)N(CCO)C(c2ccccc2F)C1=C(O)c1ccccc1", "note": "(stereo not given)", "T3 sensor activation Q score": -0.69}, {"compound": "CCCCn1ncc(O)c(Cl)c1=O", "T3 sensor activation Q score": -0.225}, {"compound": "Cc1ccc(CN2CCN(c3ccccn3)CC2)c(C)c1", "T3 sensor activation Q score": -0.735}, {"compound": "Cc1ccc(S(=O)(=O)NC2CCCCC2)c2nsnc12", "T3 sensor activation Q score": -0.98}, {"compound": "COc1ccc(N2C(=O)C(O)=C(C(C)=O)C2c2ccc(OC)c(OC)c2)cc1", "note": "(stereo not given)", "T3 sensor activation Q score": -0.475}, {"compound": "Cc1ccccc1NC1CC(C)Nc2c(C)cccc21", "note": "(stereo not given)", "T3 sensor activation Q score": 0.1}, {"compound": "CCN(CC)C(=O)C1CCCN(Cc2c(Cl)cccc2Cl)C1", "note": "(stereo not given)", "T3 sensor activation Q score": -0.195}, {"compound": "CC(C)NC(=O)COc1ccc(Cl)cc1Cl", "T3 sensor activation Q score": 0.405}, {"compound": "O=[N+]([O-])c1ccccc1CN1CCC(O)CC1", "T3 sensor activation Q score": 0.49}, {"compound": "CSc1cccc(NC(=O)C2CCN(C(=O)Cc3ccccc3)CC2)c1", "T3 sensor activation Q score": -0.365}, {"compound": "COc1cc2c(cc1OC)CN(Cc1ccccc1Cl)CC2", "T3 sensor activation Q score": 0.1}, {"compound": "Fc1ccc(CN2CCN(c3ccccn3)CC2)cc1Br", "T3 sensor activation Q score": -0.71}, {"compound": "Cc1ccc(NC2CC(=O)N(c3cccc(Cl)c3)C2=O)cc1", "note": "(stereo not given)", "T3 sensor activation Q score": 0.29}, {"compound": "Cc1ccc(NS(=O)(=O)c2ccc(F)cc2)cc1C", "T3 sensor activation Q score": 1.05}, {"compound": "CC(C(=O)O)N1C(=O)c2ccccc2C1=O", "note": "(stereo not given)", "T3 sensor activation Q score": -0.055}, {"compound": "O=C(Nc1ccc(F)cc1)Nc1cccc(Br)c1", "T3 sensor activation Q score": -0.255}, {"compound": "CN(C)CCN(C)Cc1ccccc1F", "T3 sensor activation Q score": -0.455}, {"compound": "CCN1CCN(C/C=C/c2ccc(N(C)C)cc2)CC1", "T3 sensor activation Q score": 0.23}, {"compound": "CCCCNc1ccc(C(=O)O)cc1", "T3 sensor activation Q score": 0.325}, {"compound": "CCOc1ccccc1N1CCN(Cc2ccc([N+](=O)[O-])cc2)CC1", "T3 sensor activation Q score": 0.47}, {"compound": "CC(=O)Nc1ccc(S(=O)(=O)NC2CCCCC2)cc1", "T3 sensor activation Q score": -0.94}, {"compound": "CC(=O)Nc1cc2nc3ccccc3nc2cc1NC(C)=O", "T3 sensor activation Q score": -0.65}, {"compound": "Nc1cc(C(=O)O)ccc1Nc1ccccc1", "T3 sensor activation Q score": 1.3}, {"compound": "CC(=O)Nc1cccc(NC(=O)C(Cl)Cl)c1", "T3 sensor activation Q score": 0.56}, {"compound": "CC(=O)C1=C(O)C(=O)N(c2ccccn2)C1c1ccc(Br)cc1", "note": "(stereo not given)", "T3 sensor activation Q score": 0.155}, {"compound": "O=[N+]([O-])c1cc2c(cc1CN1CCCCCC1)OCO2", "T3 sensor activation Q score": 0.15}, {"compound": "CC(C)c1ccc(NC(=O)[C@@H]2C[C@@H]2c2ccccc2)cc1", "T3 sensor activation Q score": -0.405}, {"compound": "COc1ccccc1N1CCN(Cc2ccc(NC(C)=O)cc2)CC1", "T3 sensor activation Q score": 0.44}, {"compound": "COc1ccc(N2C(=O)CC(N3CCOCC3)C2=O)cc1", "note": "(stereo not given)", "T3 sensor activation Q score": 0.4}, {"compound": "CC(=O)c1ccc(NC(=O)c2cccs2)cc1", "T3 sensor activation Q score": 0.13}, {"compound": "Fc1c(F)c(F)c(CSc2nc3ccccc3[nH]2)c(F)c1F", "T3 sensor activation Q score": 0.075}]}, {"tested_on": "ppGalNAc-T2 sensor", "experiment": "T2 sensor activation Q score (MG/GFP ratio z-score vs DMSO controls) (SD units); higher = more sensor activation (inhibition of ppGalNAc-T2 glycosylation)", "conditions": "HEK293 sensor cells; 10 µM; 6 h", "procedure": "as §1", "values": [{"compound": "Cc1ccc(-c2ncccc2O)cc1", "T2 sensor activation Q score": 0.07}, {"compound": "CN(Cc1ccc2c(c1)OCO2)C1CCCCC1", "T2 sensor activation Q score": -0.275}, {"compound": "Clc1ccccc1CN1CCc2ccccc2C1", "T2 sensor activation Q score": -0.72}, {"compound": "CS(=O)(=O)N(Cc1ccccc1)c1ccc(C(=O)O)cc1", "T2 sensor activation Q score": -0.255}, {"compound": "COc1ccc(/C=C(/NC(=O)c2ccco2)C(=O)Nc2ccc(Cl)cc2)cc1", "T2 sensor activation Q score": -1.06}, {"compound": "CC(NS(=O)(=O)c1ccc(Br)cc1)c1ccccc1", "note": "(stereo not given)", "T2 sensor activation Q score": -0.92}, {"compound": "CC(=O)Nc1ccc2c(c1)N(C(C)=O)c1ccccc1CC2", "T2 sensor activation Q score": -0.49}, {"compound": "COc1ccc(OC)c(C(=O)c2ccc(C(=O)O)cc2)c1", "T2 sensor activation Q score": -0.475}, {"compound": "Nc1cccc(C(=O)Nc2ccccc2Cl)c1", "T2 sensor activation Q score": -0.525}, {"compound": "O=C1C(=O)N(CCO)C(c2ccccc2F)C1=C(O)c1ccccc1", "note": "(stereo not given)", "T2 sensor activation Q score": -0.27}, {"compound": "CCCCn1ncc(O)c(Cl)c1=O", "T2 sensor activation Q score": 1.91}, {"compound": "Cc1ccc(CN2CCN(c3ccccn3)CC2)c(C)c1", "T2 sensor activation Q score": -0.09}, {"compound": "Cc1ccc(S(=O)(=O)NC2CCCCC2)c2nsnc12", "T2 sensor activation Q score": -0.035}, {"compound": "COc1ccc(N2C(=O)C(O)=C(C(C)=O)C2c2ccc(OC)c(OC)c2)cc1", "note": "(stereo not given)", "T2 sensor activation Q score": -0.51}, {"compound": "Cc1ccccc1NC1CC(C)Nc2c(C)cccc21", "note": "(stereo not given)", "T2 sensor activation Q score": 0.07}, {"compound": "CCN(CC)C(=O)C1CCCN(Cc2c(Cl)cccc2Cl)C1", "note": "(stereo not given)", "T2 sensor activation Q score": 0.335}, {"compound": "CC(C)NC(=O)COc1ccc(Cl)cc1Cl", "T2 sensor activation Q score": 0}, {"compound": "O=[N+]([O-])c1ccccc1CN1CCC(O)CC1", "T2 sensor activation Q score": 1.17}, {"compound": "CSc1cccc(NC(=O)C2CCN(C(=O)Cc3ccccc3)CC2)c1", "T2 sensor activation Q score": -0.49}, {"compound": "COc1cc2c(cc1OC)CN(Cc1ccccc1Cl)CC2", "T2 sensor activation Q score": 0.26}, {"compound": "Fc1ccc(CN2CCN(c3ccccn3)CC2)cc1Br", "T2 sensor activation Q score": -0.045}, {"compound": "Cc1ccc(NC2CC(=O)N(c3cccc(Cl)c3)C2=O)cc1", "note": "(stereo not given)", "T2 sensor activation Q score": -0.78}, {"compound": "Cc1ccc(NS(=O)(=O)c2ccc(F)cc2)cc1C", "T2 sensor activation Q score": 0.04}, {"compound": "CC(C(=O)O)N1C(=O)c2ccccc2C1=O", "note": "(stereo not given)", "T2 sensor activation Q score": -0.35}, {"compound": "O=C(Nc1ccc(F)cc1)Nc1cccc(Br)c1", "T2 sensor activation Q score": 0.915}, {"compound": "CN(C)CCN(C)Cc1ccccc1F", "T2 sensor activation Q score": 0.78}, {"compound": "CCN1CCN(C/C=C/c2ccc(N(C)C)cc2)CC1", "T2 sensor activation Q score": -0.575}, {"compound": "CCCCNc1ccc(C(=O)O)cc1", "T2 sensor activation Q score": 0.32}, {"compound": "CCOc1ccccc1N1CCN(Cc2ccc([N+](=O)[O-])cc2)CC1", "T2 sensor activation Q score": 1.35}, {"compound": "CC(=O)Nc1ccc(S(=O)(=O)NC2CCCCC2)cc1", "T2 sensor activation Q score": -1.55}, {"compound": "CC(=O)Nc1cc2nc3ccccc3nc2cc1NC(C)=O", "T2 sensor activation Q score": -0.475}, {"compound": "Nc1cc(C(=O)O)ccc1Nc1ccccc1", "T2 sensor activation Q score": -0.205}, {"compound": "CC(=O)Nc1cccc(NC(=O)C(Cl)Cl)c1", "T2 sensor activation Q score": 0.025}, {"compound": "CC(=O)C1=C(O)C(=O)N(c2ccccn2)C1c1ccc(Br)cc1", "note": "(stereo not given)", "T2 sensor activation Q score": 0.115}, {"compound": "O=[N+]([O-])c1cc2c(cc1CN1CCCCCC1)OCO2", "T2 sensor activation Q score": 0.29}, {"compound": "CC(C)c1ccc(NC(=O)[C@@H]2C[C@@H]2c2ccccc2)cc1", "T2 sensor activation Q score": 0.76}, {"compound": "COc1ccccc1N1CCN(Cc2ccc(NC(C)=O)cc2)CC1", "T2 sensor activation Q score": 1.02}, {"compound": "COc1ccc(N2C(=O)CC(N3CCOCC3)C2=O)cc1", "note": "(stereo not given)", "T2 sensor activation Q score": -0.645}, {"compound": "CC(=O)c1ccc(NC(=O)c2cccs2)cc1", "T2 sensor activation Q score": -0.23}, {"compound": "Fc1c(F)c(F)c(CSc2nc3ccccc3[nH]2)c(F)c1F", "T2 sensor activation Q score": 0.84}]}]}
